Data as given in PubChem BioAssay AID652243 (Drosophila RNAi Screening Center, 2013)
The deposit covers about 24,000 reagents; this is an unselected part of those that have a named target and a result. Of all reagents, 246 (1%) got an active call. 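Plates not normalised; calls are printed but the firefly/Renilla ratio behind them is not deposited; fold cut for lowering reported inconsistently.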 The raw values are shown without normalisation. Names joined by + are all predicted targets of the reagent. Not stated in the record: the amount of reagent.

- Test: 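Fly genes required for human androgen receptor driven transcription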 (primary screen)
- System: Drosophila S2R+ cells
- Reagent: long dsRNA against Drosophila genes
- Time to read-out: 72 h (48 h, then 24 h hormone)
- Conditions: synthetic androgen R1881 at 10 nM for 24 h
- Read-out: 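Firefly light from an androgen-responsive reporter and Renilla control light per well, raw and unnormalised, for each of two replicates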
- Direction: firefly reporter light: higher = more light from androgen-responsive reporter; Renilla control light: higher = more constitutive control signal (cell number, transfection)
- Call rule: 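Hit when the log firefly-to-Renilla ratio dropped or increased by a fixed fold versus the mean of GFP or LacZ controls across duplicate plates; lowering cut given as 1.5 and as 3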
- Meaning of the calls: active = hit: reporter lowered or raised; inactive = no hit

Depletion of Mbs [DRSC09414] gave: firefly reporter light, replicate 1 = 2.81e5; firefly reporter light, replicate 2 = 1.37e5; Renilla control light, replicate 1 = 7.16e5; Renilla control light, replicate 2 = 3.57e5; inactive.
For Mbs [DRSC10525], the entry reads firefly reporter light, replicate 1 = 68134; firefly reporter light, replicate 2 = 66239; Renilla control light, replicate 1 = 7.43e5; Renilla control light, replicate 2 = 4.35e5; inactive.
With knock-down of Mbs [DRSC10553], the screen gave firefly reporter light, replicate 1 = 3.44e5; firefly reporter light, replicate 2 = 5.65e5; Renilla control light, replicate 1 = 1.41e6; Renilla control light, replicate 2 = 1.70e6; active.
Depletion of Mbs [DRSC24459] resulted in: firefly reporter light, replicate 1 = 3.88e5; firefly reporter light, replicate 2 = 4.88e5; Renilla control light, replicate 1 = 5.49e5; Renilla control light, replicate 2 = 5.59e5; inactive.
mtd [DRSC12131] showed firefly reporter light, replicate 1 = 72307; firefly reporter light, replicate 2 = 89741; Renilla control light, replicate 1 = 5.36e5; Renilla control light, replicate 2 = 7.30e5; inactive.
Against mtd [DRSC12380], the entry reads firefly reporter light, replicate 1 = 70783; firefly reporter light, replicate 2 = 59402; Renilla control light, replicate 1 = 3.72e5; Renilla control light, replicate 2 = 4.53e5; inactive.
Depletion of mtd [DRSC12381] gave: firefly reporter light, replicate 1 = 78290; firefly reporter light, replicate 2 = 88641; Renilla control light, replicate 1 = 1.86e6; Renilla control light, replicate 2 = 1.90e6; inactive.
For mtd [DRSC29132], the values are firefly reporter light, replicate 1 = 9.27e5; firefly reporter light, replicate 2 = 5.65e5; Renilla control light, replicate 1 = 2.05e6; Renilla control light, replicate 2 = 9.07e5; inactive.
Rab9Db + Rab9Fa [DRSC18445] scored firefly reporter light, replicate 1 = 4.59e5; firefly reporter light, replicate 2 = 4.60e5; Renilla control light, replicate 1 = 3.72e6; Renilla control light, replicate 2 = 3.28e6; inactive.
CG9624 [DRSC16523] gave firefly reporter light, replicate 1 = 85874; firefly reporter light, replicate 2 = 78252; Renilla control light, replicate 1 = 1.86e6; Renilla control light, replicate 2 = 1.95e6; inactive.
Silencing of odd [DRSC23024] came out at: firefly reporter light, replicate 1 = 5.84e5; firefly reporter light, replicate 2 = 8.16e5; Renilla control light, replicate 1 = 9.87e5; Renilla control light, replicate 2 = 1.62e6; inactive.
Silencing of ear [DRSC15675] resulted in: firefly reporter light, replicate 1 = 50328; firefly reporter light, replicate 2 = 77601; Renilla control light, replicate 1 = 6.91e5; Renilla control light, replicate 2 = 7.99e5; inactive.
Knock-down of ear [DRSC24291] gave: firefly reporter light, replicate 1 = 4.74e5; firefly reporter light, replicate 2 = 5.82e5; Renilla control light, replicate 1 = 4.12e5; Renilla control light, replicate 2 = 5.79e5; inactive.
Silencing of Hand [DRSC02656] gave: firefly reporter light, replicate 1 = 2.28e5; firefly reporter light, replicate 2 = 3.07e5; Renilla control light, replicate 1 = 1.07e6; Renilla control light, replicate 2 = 1.69e6; inactive.
